# Results taken from the supplement of paper PMC7024190.
# Structures can show the parent of a compound that is named as a salt. This is one part of the list. Repeats in this data set agree poorly, so a single value says little.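 A first-round screen of about ten thousand compounds sought those raising reporter output, using human embryonic kidney cells briefly transfected with a plasmid carrying a Renilla luciferase gene driven by the HSV-TK promoter.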
# Tested on: HEK 293FT
# Assay: log relative Renilla luciferase luminescence (reporter expression vs reference, reference not stated) (log (base not stated)); higher = higher recombinant reporter expression
# Conditions: 10 µM; time after transfection 48 h
row,Compound,log
1,CC(=O)N[C@@H](CCC(N)=O)C(=O)O [aceglutamide],-0.00598
2,COc1ccc(-c2c(O)c3c(OC)c4c(cc3oc2=O)OC(C)(C)C=C4)cc1 [robustic acid],-0.0979
3,CC(=O)NO [acetohydroxamic acid],-0.0905
4,CN1CCCN=C1COC(=O)C(O)(c1ccccc1)C1CCCCC1 (stereo not drawn) [oxyphencyclimine hydrochloride],0.144
5,CC(C)(Oc1ccc(Cl)cc1)C(=O)O [clofibric acid],-0.0111
6,CCCCCCCCCCC[C@@H](C[C@@H]1OC(=O)[C@H]1CCCCCC)OC(=O)[C@H](CC(C)C)NC=O [orlistat],-0.0451
7,"COc1ccc(-c2oc3ccccc3c(=O)c2OC)cc1 [3,4'-dimethoxyflavone]",0.162
8,COc1cc(C/C=C/c2ccccc2)c(OC)cc1O [violastyrene],0.0205
9,O=C1O[C@H](CO)[C@@H](O)[C@H](O)[C@H]1O [gluconolactone],-0.0668
10,CCC(=O)OCC(=O)[C@@]1(OC(=O)CC)[C@H](C)CC2C3C([C@@H](O)C[C@@]21C)[C@@]1(C)C=CC(=O)C=C1C[C@H]3Cl (stereo partly drawn) [alclometazone dipropionate],0.0664
11,C=CCCCCCCCCCCCC(O)CC(O)COC(C)=O (stereo not drawn) [avocadene acetate],0.0756
12,CC(C)(S)[C@@H](N)C(=O)O [penicillamine],0.0906
13,O=C(O)C1CSCN1 (stereo not drawn) [timonacic],-0.0647
14,COc1cc(OC)c(C(=O)CCCN2CCCC2)c(OC)c1 [buflomedil hydrochloride],0.0529
15,N#CC(c1ccc(Cl)cc1)c1c(Cl)cc(-n2ncc(=O)[nH]c2=O)cc1Cl (stereo not drawn) [diclazuril],0.0933
16,O.O.O.O.O=C([O-])CC(O)(CC(=O)[O-])C(=O)[O-].[Li+].[Li+].[Li+] [lithium citrate],-0.0299
17,O=C[C@H](O)[C@H](O)CO [erythrose],0.0375
18,CCN1C(=O)NC(c2ccccc2)C1=O (stereo not drawn) [ethotoin],-0.0757
19,COc1ccccc1N1CCN(CC(O)COc2cccc3ccccc23)CC1 (stereo not drawn) [naftopidil],0.00605
20,CN1CCC(=C2c3ccccc3CC(=O)c3sccc32)CC1 [ketotifen fumarate],-1.39
21,CC[C@H](CC[C@@H](C)[C@H]1CC[C@H]2[C@@H]3CC=C4C[C@@H](O)CC[C@]4(C)[C@H]3CC[C@]12C)C(C)C [beta-sitosterol],0.0923
22,CCCCC[C@H](CC(=O)O)C(=O)O [nonic acid],0.0824
23,CCCN(CCC)C(=O)C(CCC(=O)O)NC(=O)c1ccccc1 (stereo not drawn) [proglumide],-0.0248
24,CC(C)(Sc1cc(C(C)(C)C)c(O)c(C(C)(C)C)c1)Sc1cc(C(C)(C)C)c(O)c(C(C)(C)C)c1 [probucol],-0.101
25,COc1cc(-c2coc3cc(OC)c(OC)c(OC)c3c2=O)cc(OC)c1OC [irigenin trimethyl ether],-0.0193
26,C[C@]12CCC3c4ccc(OC(=O)c5ccccc5)cc4CCC3C1CCC2=O (stereo partly drawn) [estrone benzoate],0.0403
27,Cn1ccnc1S [methimazole],-0.106

# In the list so far, these contain nitrogen in an aromatic ring:
row,Compound,log
15,N#CC(c1ccc(Cl)cc1)c1c(Cl)cc(-n2ncc(=O)[nH]c2=O)cc1Cl (stereo not drawn) [diclazuril],0.0933
27,Cn1ccnc1S [methimazole],-0.106

# Following part

row,Compound,log
1,Nc1c(Br)cc(Br)cc1CN[C@H]1CC[C@H](O)CC1 [ambroxol hydrochloride],-0.0464
2,Oc1ccc(Cl)c2cccnc12 [cloxyquin],-0.179
3,CCC(=O)c1ccc(O)cc1 [paroxypropione],0.0404
4,COCC1=C(C(=O)OC(C)OC(=O)OC(C)C)N2C(=O)[C@@H](NC(=O)/C(=N\OC)c3csc(N)n3)[C@H]2SC1 (stereo partly drawn) [cefpodoxime proxetil],0.0792
5,CCN(CC)CCOC(=O)C(c1ccccc1)C1CCCCC1 (stereo not drawn) [drofenine hydrochloride],-0.226
6,COc1cc(Cc2cnc(N)nc2N)cc(OC)c1OC [trimethoprim],0.0278
7,O=C(CCCN1CCC(O)(c2ccc(Br)cc2)CC1)c1ccc(F)cc1 [bromperidol],-0.0569
8,CNCC[C@H](Oc1cccc2ccccc12)c1cccs1 [duloxetine hydrochloride],0.0409
9,CC(=O)c1ccc2c(c1)N(CCCN1CCC(CCO)CC1)c1ccccc1S2 [piperacetazine],0.0782
10,CO[C@@]1(NC(=O)Cc2cccs2)C(=O)N2C(C(=O)O)=C(COC(N)=O)CS[C@@H]21 [cefoxitin sodium],0.131
11,CC(C)CCCC(C)C1CCC2C3CCC4CCCCC4(C)C3CCC12C (stereo not drawn) [cholestane],-0.00488
12,COc1cc2c(cc1OC)C(=O)C(CC1CCN(Cc3ccccc3)CC1)C2 (stereo not drawn) [donepezil hydrochloride],0.0261
13,CCCCC(CC)CN1CN(CC(CC)CCCC)CC(C)(N)C1 (stereo not drawn) [hexetidine],-0.107
14,COc1ccc(C2C(=O)c3ccccc3C2=O)cc1 [anisindione],0.0313
15,Cc1cccc(C)c1NC(=O)C1CCCCN1C (stereo not drawn) [mepivacaine hydrochloride],0.194
16,CN(C)c1ccc2nc3ccc(=[N+](C)C)cc-3sc2c1 [methylene blue],-0.965
17,COc1cc(/C=C/C(=O)N2CCC=CC2=O)cc(OC)c1OC [piplartine],-1.34
18,N#Cc1ccc2[nH]cc(CCCCN3CCN(c4ccc5oc(C(N)=O)cc5c4)CC3)c2c1 [vilazodone hydrochloride],-0.0134
19,COc1cc(OC)c2c(OC)c(-c3ccc4c(c3)OCO4)c(=O)oc2c1 [derrusnin],0.0777
20,CN1C(C(=O)Nc2ccccn2)=C(O)c2sccc2S1(=O)=O [tenoxicam],0.0728
21,Cc1ncc([N+](=O)[O-])n1CC(O)CCl (stereo not drawn) [ornidazole],0.0118
22,C[C@]12CC[C@H]3C(=CCc4cc(O)ccc43)[C@@H]1CCC2=O [equilin],-0.128
23,C[C@]12C=CC(=O)C=C1CC[C@@H]1[C@@H]2[C@@H](O)C[C@@]2(C)[C@H]1CC[C@]2(O)C(=O)COP(=O)(O)O [prednisolone sodium phosphate],-0.0938
24,N=C(N)N [guanidine hydrochloride],0.0893
25,Cc1c(C(N)=O)cc([N+](=O)[O-])cc1[N+](=O)[O-] [dinitolmide],0.00265
26,C=C[C@H]1CN2CC[C@H]1C[C@@H]2[C@@H](O)c1ccnc2ccc(OC)cc12 [quinidine gluconate],0.00864
